# Some of the results follow. The main result of the screen is listed elsewhere. These columns were measured beside it and carry no call. Most of these compounds were active or inconclusive in the main read-out, so they are no random draw. Words in brackets tell the shape of the fitted curve; partial curves, single points and poor fits give uncertain potencies.
# Test: qHTS Assay to Find Inhibitors of Chronic Active B-Cell Receptor Signaling
# Settings: ABC-DLBCL IkBa-CBG/CBR reporter, luminescence ratio (green luciferase fused to IkBa over red control in TMD8 lymphoma cells), 4 h
# Procedure, shortened: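 TMD8 ABC-DLBCL cells carrying doxycycline-inducible green luciferase fused to IkappaBalpha plus unfused red luciferase were exposed to compounds (up to 46 uM) for 4 hrs at 37C. Activity came from the overlap-corrected green/red luminescence ratio.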
# [1] = measured here: CBR red luminescence, cell number
# [2] = measured here: IkBa-CBG green luminescence
SMILES,AC50 [1],AC50 [2]
O=c1oc2ccc(Cl)cc2nc1/C=C(\O)c1cccs1,"6.31 µM [rising, single point]",–
CCOC(=O)C1(Cc2cccc(OC)c2)CCN(Cc2cccc(OC)c2O)CC1,"1.58 µM [falling, partial curve, poor fit]",–
COc1ccc(S(=O)(=O)N2CCC(N3CCCC3)CC2)cc1,"3.55 µM [falling, partial curve, poor fit]",–
CC(C)OC(=O)c1ccc(NC(=O)c2cncc(Br)c2)cc1,"1.58 µM [rising, full curve]",–
CCOC(=O)C1=C(CC)Nc2ccccc2N/C1=N\S(=O)(=O)c1cc(Br)ccc1Br,"11.2 µM [falling, single point]",–
CCn1c(SCC(=O)Nc2nc3ccccc3s2)nnc1-c1ccc(OC)cc1,"10.3 µM [falling, partial curve]",–
c1cc(-c2noc(CC3CCCCC3)n2)ccn1,"31.6 µM [rising, single point]",–
O=C(N/N=C/c1ccc2nccnc2c1)c1ccccc1O,"0.316 µM [falling, full curve]",–
N#Cc1cn(CCOc2ccc(F)cc2)c2ccccc12,"32.6 µM [falling, single point]",–
Cc1cccc2nc(C(=O)Nc3cc(Cl)ccc3-n3cncn3)cn12,"6.51 µM [rising, single point]",–
COC(=O)C1=C(C)NC(=S)N(C(C)=O)C1c1ccccc1 (configuration not stated),"11.6 µM [falling, partial curve, poor fit]",–
O=C(/C=C/Nc1cccc(F)c1)c1ccco1,"16.4 µM [falling, single point]",–
Cc1ccc(NC2=C(CC(=O)O)C(c3ccccc3)N(c3ccc(C)cc3)C2=O)cc1 (configuration not stated),"10.3 µM [falling, partial curve, poor fit]",–
CCOC(=O)CC1C(=O)NCCN1S(=O)(=O)c1cc(Cl)c(Cl)cc1Cl (configuration not stated),"8.91 µM [rising, partial curve]",–
O=C1CC(N2CCSCC2)C(=O)N1CCc1ccccc1 (configuration not stated),"6.51 µM [rising, single point]",–
CCOC(=O)C1CCN(C(=O)/C=C/c2ccc3c(c2)OCO3)CC1,"1.41 µM [falling, full curve]",–
CC1C(=O)N(Cc2ccccc2F)c2ccccc2N1C(=O)c1c(F)cccc1F (configuration not stated),"35.5 µM [falling, single point]",–
Cc1cc(SCC(=O)Nc2ccc(O)cc2)n2ncc(-c3ccccc3)c2n1,"5.62 µM [rising, single point]",–
Cc1nc2nc(-c3ccccc3)[nH]n2c(=O)c1C,"9.2 µM [falling, partial curve, poor fit]",–
CC(C)N(C(=O)Cn1cc(S(=O)(=O)CC(=O)NCc2ccccc2)c2ccccc21)C(C)C,"0.794 µM [rising, partial curve]",–
O=C(Nc1ccncc1)Nc1ccncc1,"17.8 µM [falling, single point]",–

SMILES,AC50 [1],AC50 [2]
CCOc1ccc(/C=C/C(=O)N(CC)CC(=O)NCc2cccs2)cc1OC,"29.1 µM [rising, single point]",–
Cc1ccc(C(=O)N2C(=O)c3cccc(N)c3C2=O)o1,"15.8 µM [falling, partial curve]",–
O=[N+]([O-])c1cccc(-c2cn(-c3ccccc3)c(=S)[nH]2)c1,"3.55 µM [rising, full curve, poor fit]",–
COc1ccc(NC(=O)CCn2c(-c3ccc(F)cc3)cc(C(C)=O)c2C)c(OC)c1,"3.55 µM [rising, full curve, poor fit]",–
CCCNc1ncnc2c1c(-c1ccccc1)cn2-c1ccc(OCC)cc1,"2.82 µM [rising, partial curve, poor fit]",–
C/C(=N\NC(=O)c1ccc2c(c1)OCO2)c1cccnc1,"3.98 µM [falling, full curve, poor fit]",–
COC(=O)c1ccccc1NC(=O)C1CC(=O)N(c2ccccc2)C1 (configuration not stated),"2.06 µM [rising, partial curve, poor fit]",–
O=C(NCCCO)/C(=C\c1cn(-c2ccccc2)nc1-c1cccnc1)NC(=O)c1ccccc1,"7.31 µM [rising, partial curve, poor fit]",–
O=C(c1cnn(-c2ccccc2)c1)c1cc(F)ccc1O,"1.41 µM [rising, partial curve]",–
O=C(O)CC1(CC(=O)Nc2ccc(Oc3cccc(C(F)(F)F)c3)nc2)CCCC1,"35.5 µM [falling, single point]",–
O=S(=O)(Nc1ccc(O)c2ccccc12)c1ccc(Br)cc1,"35.5 µM [falling, single point]",–
Cc1cccc(-n2ncc3c(NCCCN4CCCC4=O)ncnc32)c1,"0.562 µM [falling, full curve]",–
CSCCC(NS(=O)(=O)c1ccc(Cl)cc1)C(=O)OCC(=O)c1c(C)[nH]c2ccccc12 (configuration not stated),"20.6 µM [falling, single point]","25.9 µM [rising, partial curve, poor fit]"
O=c1c2cc(F)ccc2sn1-c1ccccc1,"16.4 µM [falling, partial curve]","3.66 µM [falling, full curve, poor fit]"
CCCn1c(=N)n(CC(O)c2ccc(C)cc2)c2ccccc21 (configuration not stated),"11.2 µM [falling, single point]",–
CC[C@H](C)[C@H](NC(=O)c1ccc(Cl)cc1)C(=O)OCC(=O)c1ccc2c(c1)NC(=O)CO2,"18.4 µM [falling, single point]",–
NC1=NC[C@H](c2ccccc2)N1CCc1cc(C(F)(F)F)cc(C(F)(F)F)c1,"14.1 µM [falling, partial curve, poor fit]",–
COc1ccc(S(=O)(=O)N2CCN(CCOc3ccccc3Cl)CC2)cc1OC,"6.51 µM [rising, single point]",–
Cc1ccc(C(=O)/C=C/c2cc(Br)cc(Br)c2O)o1,"0.562 µM [rising, full curve, poor fit]","17.8 µM [falling, single point]"
CC(C)(C)NC(=O)/C=C/c1cccc(C(F)(F)F)c1,"7.31 µM [rising, partial curve]",–
CN(C)CCNS(=O)(=O)c1ccc(N2CCN(c3ccc(F)cc3)CC2)c([N+](=O)[O-])c1,"20.6 µM [falling, single point]",–

SMILES,AC50 [1],AC50 [2]
CCOC(=O)c1ccc(Nc2nnc(C(C)(C)C)c(=O)[nH]2)cc1,"1.41 µM [falling, full curve, poor fit]",–
COc1ccc(F)cc1C(=O)C1CCCN(C(=O)CCN2CCCCO2)C1 (configuration not stated),"10 µM [rising, partial curve, poor fit]",–
COc1ccc(/C=C2\CCCC(C(=O)C(F)(F)F)=C2O)cc1,"6.51 µM [rising, full curve, poor fit]",–
N#Cc1ccc(NC(=O)Nc2ccc(Cl)cc2)cc1,"0.164 µM [rising, full curve, poor fit]",–
Cc1cc(C)cc(N(CC(=O)NCc2ccco2)C(=O)CCC(=O)Nc2ccccn2)c1,"35.5 µM [falling, single point]",–
COc1ccc(N=c2oc3cc(O)ccc3cc2C(=O)NCC2CCCO2)cc1 (configuration not stated),"0.891 µM [falling, full curve]",–
NNc1nc2c(F)cccc2s1,"10.3 µM [falling, partial curve]",–
COc1ccc(-c2csc(NC(=O)c3ccoc3C)n2)cc1,"31.6 µM [falling, partial curve, poor fit]",–
CCOc1ccc(/C=N/n2cnnc2)cc1,"6.51 µM [rising, single point]",–
CSc1nsc(SCC(=O)Nc2cccc(C(=O)O)c2)n1,"22.4 µM [falling, single point]",–
Cc1noc(C)c1C(=O)Nc1c(F)cc(F)cc1Br,"6.51 µM [rising, partial curve, poor fit]",–
CCn1c(=S)[nH]c2sc3c(c2c1=O)CCCCC3,–,"3.16 µM [rising, full curve, poor fit]"
COc1ccc(NC(=O)Nc2ccc3c(c2)CC(=O)N([C@H](C)CO)C[C@@H](C)[C@H](CN(C)C(=O)Nc2ccccc2)O3)cc1,"2.59 µM [rising, full curve, poor fit]",–
O=C(N/N=C/c1cn(-c2ccccc2)nc1-c1cccnc1)c1ccc(F)cc1,"11.2 µM [falling, partial curve, poor fit]",–
Cc1nc(SCc2nc3ccccc3[nH]2)c2oc3ccccc3c2n1,"35.5 µM [falling, single point]",–
O=C1c2ccccc2C(=O)N1CCc1nc2ccccc2c(=O)n1-c1ccccn1,"0.00461 µM [rising, full curve, poor fit]",–
Cc1nc2ccc(NC(=O)CS(=O)(=O)c3ccc(F)cc3)cc2s1,"13 µM [falling, partial curve]",–
CC(=O)c1ccc(-c2ccccc2[C@H]2[C@H]3C=CC[C@@H](C)[C@@H]3C(=O)N2Cc2ccccc2)cc1,"11.2 µM [falling, single point]",–
COc1ccccc1CC(=O)NCc1csc(-c2cccs2)n1,"12.6 µM [rising, partial curve]",–
CSc1nnc2n(Cc3ccccc3)c(=O)c3c4c(sc3n12)COC(C(C)C)C4 (configuration not stated),"29.1 µM [rising, partial curve, poor fit]",–
O=S(=O)(Nc1cc2nc3ccccc3nc2n1Cc1ccccc1)c1ccc(Cl)cc1,"10.3 µM [rising, partial curve]","8.2 µM [falling, partial curve, poor fit]"

# — PubChem BioAssay AID493014 (National Center for Advancing Translational Sciences (NCATS), 2011)
